Assay results published in paper doi:10.1101/2023.04.29.538809.
No constants are given. Whether binding was seen depends on the method and setting. In cells and extracts the contact can be indirect. Some entries that bind do so weakly or less than the wild type. Where a sequence is shown, tags or fusion partners need not be part of it.

Chains of the proteins cited; added tags and fusions are not shown.
UniProt Q5THK1, whole entry: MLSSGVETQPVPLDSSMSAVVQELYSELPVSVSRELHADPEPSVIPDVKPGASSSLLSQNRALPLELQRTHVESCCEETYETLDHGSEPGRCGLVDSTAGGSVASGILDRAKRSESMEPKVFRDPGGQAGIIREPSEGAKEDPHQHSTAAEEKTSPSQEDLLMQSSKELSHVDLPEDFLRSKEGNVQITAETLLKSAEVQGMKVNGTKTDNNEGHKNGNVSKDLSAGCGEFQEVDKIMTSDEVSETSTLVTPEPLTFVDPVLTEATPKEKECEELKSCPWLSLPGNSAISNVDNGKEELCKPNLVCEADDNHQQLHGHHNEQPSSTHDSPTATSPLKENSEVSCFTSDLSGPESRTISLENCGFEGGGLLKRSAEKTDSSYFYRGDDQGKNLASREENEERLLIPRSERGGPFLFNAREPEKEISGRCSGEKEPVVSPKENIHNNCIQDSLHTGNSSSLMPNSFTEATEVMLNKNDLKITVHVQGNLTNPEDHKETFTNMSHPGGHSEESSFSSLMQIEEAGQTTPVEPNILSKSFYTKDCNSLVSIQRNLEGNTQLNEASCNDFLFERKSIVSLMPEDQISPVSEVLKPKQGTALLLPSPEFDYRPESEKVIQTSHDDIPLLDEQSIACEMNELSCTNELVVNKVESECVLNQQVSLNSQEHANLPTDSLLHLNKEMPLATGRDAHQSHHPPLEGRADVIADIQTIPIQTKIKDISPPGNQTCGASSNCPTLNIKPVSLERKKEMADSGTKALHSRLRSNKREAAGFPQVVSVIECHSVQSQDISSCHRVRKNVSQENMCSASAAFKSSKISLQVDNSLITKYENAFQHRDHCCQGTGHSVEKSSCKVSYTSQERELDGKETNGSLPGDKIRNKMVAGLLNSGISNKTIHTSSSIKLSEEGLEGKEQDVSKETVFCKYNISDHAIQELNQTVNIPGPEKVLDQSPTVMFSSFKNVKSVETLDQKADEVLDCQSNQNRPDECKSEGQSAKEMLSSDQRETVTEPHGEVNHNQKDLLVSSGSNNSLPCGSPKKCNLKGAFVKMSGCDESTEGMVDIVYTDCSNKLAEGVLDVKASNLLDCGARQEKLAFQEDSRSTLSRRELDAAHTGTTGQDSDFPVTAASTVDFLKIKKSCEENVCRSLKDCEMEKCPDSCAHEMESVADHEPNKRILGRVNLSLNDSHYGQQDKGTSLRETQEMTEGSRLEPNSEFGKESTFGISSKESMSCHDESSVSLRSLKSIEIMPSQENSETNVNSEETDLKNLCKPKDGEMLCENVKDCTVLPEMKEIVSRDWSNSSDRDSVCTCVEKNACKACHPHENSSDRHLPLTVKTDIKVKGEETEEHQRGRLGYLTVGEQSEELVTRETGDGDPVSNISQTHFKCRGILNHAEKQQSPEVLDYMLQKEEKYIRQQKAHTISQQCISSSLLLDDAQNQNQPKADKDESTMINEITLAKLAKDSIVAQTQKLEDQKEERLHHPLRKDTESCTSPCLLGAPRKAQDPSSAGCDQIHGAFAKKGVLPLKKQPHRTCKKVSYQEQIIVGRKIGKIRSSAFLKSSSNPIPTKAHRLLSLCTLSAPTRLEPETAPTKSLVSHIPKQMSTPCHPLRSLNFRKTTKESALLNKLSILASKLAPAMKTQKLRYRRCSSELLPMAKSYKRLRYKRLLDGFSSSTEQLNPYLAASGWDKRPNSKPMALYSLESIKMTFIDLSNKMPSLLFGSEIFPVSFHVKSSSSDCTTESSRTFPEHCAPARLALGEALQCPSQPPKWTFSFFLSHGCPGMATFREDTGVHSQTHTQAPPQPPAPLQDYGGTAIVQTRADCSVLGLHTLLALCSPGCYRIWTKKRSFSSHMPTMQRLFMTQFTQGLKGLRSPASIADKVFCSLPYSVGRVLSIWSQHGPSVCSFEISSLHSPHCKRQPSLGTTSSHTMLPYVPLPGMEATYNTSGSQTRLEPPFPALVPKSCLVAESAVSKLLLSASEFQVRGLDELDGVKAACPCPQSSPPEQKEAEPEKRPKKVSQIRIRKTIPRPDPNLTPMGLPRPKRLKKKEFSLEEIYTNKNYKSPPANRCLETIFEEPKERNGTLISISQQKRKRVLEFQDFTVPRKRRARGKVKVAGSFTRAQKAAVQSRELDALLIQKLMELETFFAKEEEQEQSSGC

Target: C-terminal Myc-FLAG tagged PRR14L (human), Q5THK1
Assay: co-IP
Conditions: remark: other sources report otherwise

B1: HA-tagged BAP1, Q92560 1-729 (protein)
chain: MNKGWLELESDPGLFTLLVEDFGVKGVQVEEIYDLQSKCQGPVYGFIFLFKWIEERRSRRKVSTLVDDTSVIDDDIVNNMFFAHQLIPNSCATHALLSVLLNCSSVDLGPTLSRMKDFTKGFSPESKGYAIGNAPELAKAHNSHARPEPRHLPEKQNGLSAVRTMEAFHFVSYVPITGRLFELDGLKVYPIDHGPWGEDEEWTDKARRVIMERIGLATAGEPYHDIRFNLMAVVPDRRIKYEARLHVLKVNRQTVLEALQQLIRVTQPELIQTHKSQESQLPEESKSASNKSPLVLEANRAPAASEGNHTDGAEEAAGSCAQAPSHSPPNKPKLVVKPPGSSLNGVHPNPTPIVQRLPAFLDNHNYAKSPMQEEEDLAAGVGRSRVPVRPPQQYSDDEDDYEDDEEDDVQNTNSALRYKGKGTGKPGALSGSADGQLSVLQPNTINVLAEKLKESQKDLSIPLSIKTSSGAGSPAVAVPTHSQPSPTPSNESTDTASEIGSAFNSPLRSPIRSANPTRPSSPVTSHISKVLFGEDDSLLRVDCIRYNRAVRDLGPVISTGLLHLAEDGVLSPLALTEGGKGSSPSIRPIQGSQGSSSPVEKEVVEATDSREKTGMVRPGEPLSGEKYSPKELLALLKCVEAEIANYEACLKEEVEKRKKFKIDDQRRTHNYDEFICTFISMLAQEGMLANLVEQNISVRRRQGVSIGRLHKQRKPDRRKRSRPYKAKRQ
binding: binds
